Literature values, collected in patent US7060729B2, “Composition and method for treating skin” (priority 2002, dated 2006).
At least one compound was matched to its structure with a doubt left.

Test system: H. pylori
Conditions: Mayr-Kanhauser 2001

COc1ccnc(C[S+]([O-])c2nc3ccc(OC(F)F)cc3[nH]2)c1OC (stereo not shown) [pantoprazole]
eliminating H. pylori: effective
